Experimental data from the supplement of paper PMC10849652.
Some of the results follow.

Protein sequences, listed by entry. Tags and fused reporters are not part of them. Lines headed by an entry give the natural chain unless they say otherwise; changes in a name come on top.
UniProt O95551: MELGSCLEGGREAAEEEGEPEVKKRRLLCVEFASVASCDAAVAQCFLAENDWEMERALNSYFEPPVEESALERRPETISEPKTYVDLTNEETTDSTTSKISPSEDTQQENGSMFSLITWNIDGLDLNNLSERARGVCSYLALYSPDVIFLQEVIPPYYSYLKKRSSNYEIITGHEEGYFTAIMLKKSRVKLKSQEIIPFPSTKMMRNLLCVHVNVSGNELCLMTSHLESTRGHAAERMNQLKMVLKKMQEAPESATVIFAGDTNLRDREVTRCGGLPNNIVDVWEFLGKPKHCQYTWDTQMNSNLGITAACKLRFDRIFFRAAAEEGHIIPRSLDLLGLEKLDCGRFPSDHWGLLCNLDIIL
UniProt Q9UP52: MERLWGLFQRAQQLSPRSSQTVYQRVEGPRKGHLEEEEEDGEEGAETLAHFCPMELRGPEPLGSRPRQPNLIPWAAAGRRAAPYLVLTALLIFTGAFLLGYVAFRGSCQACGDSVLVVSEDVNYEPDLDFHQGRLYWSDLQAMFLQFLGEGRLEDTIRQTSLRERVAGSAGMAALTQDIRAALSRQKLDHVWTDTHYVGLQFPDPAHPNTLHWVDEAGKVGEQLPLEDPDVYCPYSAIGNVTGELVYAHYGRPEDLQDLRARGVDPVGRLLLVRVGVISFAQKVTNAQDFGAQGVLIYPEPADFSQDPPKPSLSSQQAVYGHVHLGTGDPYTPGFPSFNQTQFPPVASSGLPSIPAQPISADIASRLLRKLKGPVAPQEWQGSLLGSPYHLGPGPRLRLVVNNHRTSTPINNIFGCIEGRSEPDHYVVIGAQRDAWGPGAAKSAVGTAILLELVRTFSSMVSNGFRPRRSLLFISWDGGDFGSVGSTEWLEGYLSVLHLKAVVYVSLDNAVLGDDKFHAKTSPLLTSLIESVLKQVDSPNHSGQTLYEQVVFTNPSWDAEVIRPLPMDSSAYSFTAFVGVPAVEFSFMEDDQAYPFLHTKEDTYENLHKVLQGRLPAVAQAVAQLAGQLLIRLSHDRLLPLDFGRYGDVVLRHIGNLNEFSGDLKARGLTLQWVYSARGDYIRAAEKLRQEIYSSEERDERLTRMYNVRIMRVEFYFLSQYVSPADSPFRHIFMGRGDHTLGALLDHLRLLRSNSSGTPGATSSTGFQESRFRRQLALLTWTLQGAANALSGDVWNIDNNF
UniProt Q66K14, whole entry, looked up: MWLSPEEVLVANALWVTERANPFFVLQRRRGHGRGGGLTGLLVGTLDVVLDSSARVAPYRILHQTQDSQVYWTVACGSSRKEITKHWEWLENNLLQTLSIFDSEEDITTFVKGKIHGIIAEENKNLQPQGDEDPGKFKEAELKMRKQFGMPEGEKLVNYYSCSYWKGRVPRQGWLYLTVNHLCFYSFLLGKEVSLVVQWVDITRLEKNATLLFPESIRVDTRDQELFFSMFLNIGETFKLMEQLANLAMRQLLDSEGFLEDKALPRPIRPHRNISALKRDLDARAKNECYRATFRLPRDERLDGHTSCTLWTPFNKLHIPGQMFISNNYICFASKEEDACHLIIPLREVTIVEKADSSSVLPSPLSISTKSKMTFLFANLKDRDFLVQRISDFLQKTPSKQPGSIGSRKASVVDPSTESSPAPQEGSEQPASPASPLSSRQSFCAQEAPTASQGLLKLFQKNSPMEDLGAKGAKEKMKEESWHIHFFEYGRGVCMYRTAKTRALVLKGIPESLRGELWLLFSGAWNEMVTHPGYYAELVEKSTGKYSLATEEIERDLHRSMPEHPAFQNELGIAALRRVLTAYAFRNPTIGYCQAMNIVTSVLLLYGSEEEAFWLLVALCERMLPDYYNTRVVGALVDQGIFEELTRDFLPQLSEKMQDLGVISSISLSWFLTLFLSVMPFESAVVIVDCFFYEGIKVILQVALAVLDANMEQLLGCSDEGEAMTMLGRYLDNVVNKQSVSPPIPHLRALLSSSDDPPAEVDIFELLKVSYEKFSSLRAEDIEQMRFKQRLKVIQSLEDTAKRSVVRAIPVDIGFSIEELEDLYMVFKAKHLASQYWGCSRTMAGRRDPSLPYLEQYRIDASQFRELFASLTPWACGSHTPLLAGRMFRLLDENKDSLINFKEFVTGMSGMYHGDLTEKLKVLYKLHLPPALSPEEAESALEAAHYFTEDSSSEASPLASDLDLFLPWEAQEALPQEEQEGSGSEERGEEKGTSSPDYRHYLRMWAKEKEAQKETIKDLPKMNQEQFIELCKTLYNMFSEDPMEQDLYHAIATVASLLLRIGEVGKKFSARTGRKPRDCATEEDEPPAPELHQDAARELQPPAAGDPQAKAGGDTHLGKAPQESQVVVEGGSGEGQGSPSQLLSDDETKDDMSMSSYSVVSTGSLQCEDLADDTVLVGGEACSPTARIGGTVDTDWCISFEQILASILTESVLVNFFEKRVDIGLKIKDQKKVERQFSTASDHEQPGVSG
UniProt Q9H2K8: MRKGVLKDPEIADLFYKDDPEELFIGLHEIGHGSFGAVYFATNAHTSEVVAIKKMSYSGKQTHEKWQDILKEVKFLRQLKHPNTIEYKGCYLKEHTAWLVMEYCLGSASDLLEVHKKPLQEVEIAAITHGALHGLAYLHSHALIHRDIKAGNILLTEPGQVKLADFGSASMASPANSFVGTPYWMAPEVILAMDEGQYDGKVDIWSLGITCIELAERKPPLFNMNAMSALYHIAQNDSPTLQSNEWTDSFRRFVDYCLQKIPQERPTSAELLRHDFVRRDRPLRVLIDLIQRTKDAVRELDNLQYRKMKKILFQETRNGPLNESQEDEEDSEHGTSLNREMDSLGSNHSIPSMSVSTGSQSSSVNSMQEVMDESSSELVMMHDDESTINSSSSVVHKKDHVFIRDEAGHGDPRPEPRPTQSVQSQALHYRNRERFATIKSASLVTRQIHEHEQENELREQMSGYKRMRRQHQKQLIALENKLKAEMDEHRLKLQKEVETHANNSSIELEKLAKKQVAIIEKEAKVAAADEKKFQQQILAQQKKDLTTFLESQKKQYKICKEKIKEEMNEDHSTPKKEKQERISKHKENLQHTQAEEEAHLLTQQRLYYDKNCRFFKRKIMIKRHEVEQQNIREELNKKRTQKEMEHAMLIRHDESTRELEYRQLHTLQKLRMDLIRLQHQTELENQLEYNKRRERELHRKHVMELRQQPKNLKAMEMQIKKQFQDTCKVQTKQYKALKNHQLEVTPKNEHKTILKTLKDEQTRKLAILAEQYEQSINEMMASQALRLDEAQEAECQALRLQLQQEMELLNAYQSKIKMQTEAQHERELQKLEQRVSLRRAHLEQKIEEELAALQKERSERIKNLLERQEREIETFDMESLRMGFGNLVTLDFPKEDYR
UniProt O60343: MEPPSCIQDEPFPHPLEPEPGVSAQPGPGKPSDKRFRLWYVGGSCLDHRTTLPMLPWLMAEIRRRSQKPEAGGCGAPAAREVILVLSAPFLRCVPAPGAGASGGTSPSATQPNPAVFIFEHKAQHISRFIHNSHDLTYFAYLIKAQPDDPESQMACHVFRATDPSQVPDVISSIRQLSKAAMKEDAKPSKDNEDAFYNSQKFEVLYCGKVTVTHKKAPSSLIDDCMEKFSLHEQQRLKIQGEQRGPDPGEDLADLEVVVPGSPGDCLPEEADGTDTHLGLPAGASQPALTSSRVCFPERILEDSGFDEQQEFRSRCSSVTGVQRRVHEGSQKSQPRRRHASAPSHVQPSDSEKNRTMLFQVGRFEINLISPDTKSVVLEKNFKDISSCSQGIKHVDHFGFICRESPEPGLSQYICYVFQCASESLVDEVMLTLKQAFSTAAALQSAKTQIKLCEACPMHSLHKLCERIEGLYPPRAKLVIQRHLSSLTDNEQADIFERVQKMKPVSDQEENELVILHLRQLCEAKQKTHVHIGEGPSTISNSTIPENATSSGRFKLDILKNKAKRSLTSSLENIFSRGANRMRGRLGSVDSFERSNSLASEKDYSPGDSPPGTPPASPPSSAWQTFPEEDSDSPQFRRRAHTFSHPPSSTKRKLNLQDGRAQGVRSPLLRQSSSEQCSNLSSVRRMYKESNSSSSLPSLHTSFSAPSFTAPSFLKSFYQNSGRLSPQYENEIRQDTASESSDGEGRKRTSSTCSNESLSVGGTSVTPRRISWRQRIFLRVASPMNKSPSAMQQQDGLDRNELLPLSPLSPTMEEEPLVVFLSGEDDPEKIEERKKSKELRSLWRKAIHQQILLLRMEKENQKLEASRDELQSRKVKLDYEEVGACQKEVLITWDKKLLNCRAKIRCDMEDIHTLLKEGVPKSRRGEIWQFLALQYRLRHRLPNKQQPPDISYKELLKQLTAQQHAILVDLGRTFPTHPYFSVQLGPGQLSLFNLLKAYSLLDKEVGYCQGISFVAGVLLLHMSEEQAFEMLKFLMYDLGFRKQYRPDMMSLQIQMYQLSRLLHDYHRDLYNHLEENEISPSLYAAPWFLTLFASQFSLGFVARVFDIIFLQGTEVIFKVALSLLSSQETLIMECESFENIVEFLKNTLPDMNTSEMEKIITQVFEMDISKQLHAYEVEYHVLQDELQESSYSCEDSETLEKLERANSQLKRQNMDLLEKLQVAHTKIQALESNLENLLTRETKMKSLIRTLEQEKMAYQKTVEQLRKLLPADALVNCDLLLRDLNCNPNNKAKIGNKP
UniProt Q17R31: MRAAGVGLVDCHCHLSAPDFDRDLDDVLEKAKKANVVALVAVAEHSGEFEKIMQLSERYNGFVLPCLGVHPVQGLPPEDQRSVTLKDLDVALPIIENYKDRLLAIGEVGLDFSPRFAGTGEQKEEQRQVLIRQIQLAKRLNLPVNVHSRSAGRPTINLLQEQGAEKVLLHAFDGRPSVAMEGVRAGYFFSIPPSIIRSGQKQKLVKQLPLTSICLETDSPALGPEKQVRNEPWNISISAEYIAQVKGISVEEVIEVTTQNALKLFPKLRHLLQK
UniProt Q15813: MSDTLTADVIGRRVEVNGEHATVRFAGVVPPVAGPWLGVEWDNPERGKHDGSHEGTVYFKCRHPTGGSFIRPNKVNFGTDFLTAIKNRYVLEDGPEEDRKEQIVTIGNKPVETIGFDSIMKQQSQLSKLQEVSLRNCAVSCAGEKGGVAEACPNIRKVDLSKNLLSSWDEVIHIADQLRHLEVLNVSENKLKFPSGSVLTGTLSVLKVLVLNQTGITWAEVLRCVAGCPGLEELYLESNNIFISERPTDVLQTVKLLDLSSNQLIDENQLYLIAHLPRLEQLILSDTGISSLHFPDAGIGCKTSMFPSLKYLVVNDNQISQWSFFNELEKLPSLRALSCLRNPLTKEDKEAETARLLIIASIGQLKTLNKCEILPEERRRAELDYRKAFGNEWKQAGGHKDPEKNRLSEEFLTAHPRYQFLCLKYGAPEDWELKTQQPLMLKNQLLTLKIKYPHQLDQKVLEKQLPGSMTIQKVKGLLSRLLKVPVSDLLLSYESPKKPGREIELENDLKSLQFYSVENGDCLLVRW
UniProt P17542, whole entry, looked up: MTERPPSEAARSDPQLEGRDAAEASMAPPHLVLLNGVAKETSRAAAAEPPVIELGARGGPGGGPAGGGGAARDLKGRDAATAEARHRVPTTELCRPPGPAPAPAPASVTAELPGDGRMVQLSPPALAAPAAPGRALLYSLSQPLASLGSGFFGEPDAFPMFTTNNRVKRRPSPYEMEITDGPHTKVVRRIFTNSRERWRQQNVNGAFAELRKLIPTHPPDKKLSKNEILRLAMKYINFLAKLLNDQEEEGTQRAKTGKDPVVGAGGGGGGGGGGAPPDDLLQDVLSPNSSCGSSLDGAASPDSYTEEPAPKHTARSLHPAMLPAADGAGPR
UniProt Q9Y4P3: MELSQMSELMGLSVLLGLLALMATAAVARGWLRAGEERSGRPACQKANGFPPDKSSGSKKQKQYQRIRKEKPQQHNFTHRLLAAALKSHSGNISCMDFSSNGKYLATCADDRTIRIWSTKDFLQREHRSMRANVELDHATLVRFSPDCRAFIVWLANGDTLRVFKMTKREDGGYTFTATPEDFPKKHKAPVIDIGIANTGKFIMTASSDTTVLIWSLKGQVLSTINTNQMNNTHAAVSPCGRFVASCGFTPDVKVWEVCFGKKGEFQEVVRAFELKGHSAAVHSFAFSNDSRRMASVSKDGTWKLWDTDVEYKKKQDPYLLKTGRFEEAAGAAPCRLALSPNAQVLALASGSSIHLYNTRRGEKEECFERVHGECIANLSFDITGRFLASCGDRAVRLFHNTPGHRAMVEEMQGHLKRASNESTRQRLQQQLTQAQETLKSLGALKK
UniProt Q14186: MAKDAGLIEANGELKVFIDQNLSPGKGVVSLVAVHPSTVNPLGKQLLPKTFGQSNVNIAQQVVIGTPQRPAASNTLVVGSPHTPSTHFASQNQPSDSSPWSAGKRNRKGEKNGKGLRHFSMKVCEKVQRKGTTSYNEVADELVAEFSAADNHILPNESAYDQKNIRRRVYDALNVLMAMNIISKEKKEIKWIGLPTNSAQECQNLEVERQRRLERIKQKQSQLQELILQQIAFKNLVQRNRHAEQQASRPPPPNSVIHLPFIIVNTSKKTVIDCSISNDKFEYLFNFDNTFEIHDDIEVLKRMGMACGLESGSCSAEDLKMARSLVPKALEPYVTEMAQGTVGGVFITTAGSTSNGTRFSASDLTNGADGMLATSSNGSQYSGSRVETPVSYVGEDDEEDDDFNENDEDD

Legend:
Assay in all cases: log2 fold change, soluble protein after heating vs DMSO (PISA); higher = thermal stabilisation; K562 lysate, 10 uM; active = over 0.2 and 3.5 SD of the protein, either way, in both replicates (recomputed)
[1] = compound: CN1CC[C@H](c2c(O)cc(O)c3c(=O)cc(-c4ccccc4Cl)oc23)[C@H](O)C1 [alvocidib]
In short: (§1)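 Values give the log-two fold change in thermal stability against solvent controls, from duplicates. Crude K562 extract at 1 mg/mL protein, made by dounce homogenisation in PBS pH 7.4 with 1 mM MgCl2, was treated with 10 μM compound for 30 min. After 3 min heating across 48°C-58°C, aliquots were pooled, adjusted to 0.5% NP-40 at 4°C and centrifuged at 21,000xg for 90 min. The supernatant was measured by TMTpro 16plex LC-MS/MS with channel sums equalised.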

[2] = compound: CN1CCc2c(c3ccccc3n2Cc2ccc(C(=O)NO)cc2)C1 [Tubastatin A]
In short: as §1

[3] = compound: CNC(=O)C1=CC=CC=C1NC2=NC(=NC=C2Cl)NC3=C(C=C(C=C3)N4CCOCC4)OC
In short: as §1

[4] = compound: CNC(=O)c1ccc(Nc2ncc(C(F)(F)F)c(NCc3nccnc3N(C)S(C)(=O)=O)n2)cc1 [defactinib]
In short: as §1

[5] = compound: CNc1nc(-c2ccc3c(N)n[nH]c3c2)cc(N2C[C@@H](C(=O)NC3CCCCC3)CC[C@H]2C)n1
In short: as §1

[6] = compound: COC(=O)N[C@@H](C)CNc1nccc(-c2cn(C(C)C)nc2-c2cc(Cl)cc(NS(C)(=O)=O)c2F)n1 [encorafenib]
In short: as §1

[7] = compound: COC(=O)[C@H](CCSC)NC(=O)C1=C(C=C(C=C1)NC[C@H](CS)N)C2=CC=CC=C2
In short: as §1

[8] = compound: COc1cc(Nc2ncc3c(n2)-c2ccc(Cl)cc2C(c2c(F)cccc2OC)=NC3)ccc1C(=O)O [alisertib]
In short: as §1

[9] = compound: COc1cc2nc(-c3cc(F)ccc3O)nc(N[C@@H]3CNC[C@H]3C(C)(C)O)c2cc1OC
In short: as §1

[10] = compound: COc1cc2ncnc(Nc3ccc(F)c(Cl)c3)c2cc1OCCCN1CCOCC1 [gefitinib]
In short: as §1

[11] = compound: CS(=O)(=O)CCNCc1ccc(-c2ccc3ncnc(Nc4ccc(OCc5cccc(F)c5)c(Cl)c4)c3c2)o1 [lapatinib]
In short: as §1

[12] = compound: CS(=O)(=O)N1CCN(Cc2cc3nc(-c4cccc5[nH]ncc45)nc(N4CCOCC4)c3s2)CC1 [pictilisib]
In short: as §1

[13] = compound: C[C@@H](Oc1cc(-c2cnn(C3CCNCC3)c2)cnc1N)c1c(Cl)ccc(F)c1Cl [crizotinib]
In short: as §1

[14] = compound: C[C@H](C1=CC=C(C=C1)C(=O)NC2=C3C=CNC3=NC=C2)N
In short: as §1

[15] = compound: C[C@H](Nc1ncnc2nc[nH]c12)c1cc2cccc(Cl)c2c(=O)n1-c1ccccc1 [duvelisib]
In short: as §1

[16] = compound: Cc1cc(Nc2cc(CN3CCOCC3)c3nc(C)c(Cc4ccc(Cl)cc4F)n3n2)n[nH]1 [gandotinib]
In short: as §1

[17] = compound: Cc1cc(Nc2cc(N3CCN(C)CC3)nc(Sc3ccc(NC(=O)C4CC4)cc3)n2)n[nH]1 [tozasertib]
In short: as §1

[18] = compound: Cc1ccc(-n2nc(C(C)(C)C)cc2NC(=O)Nc2ccc(OCCN3CCOCC3)c3ccccc23)cc1 [doramapimod]
In short: as §1

[19] = compound: Cc1ccc(NC(=O)c2ccc(CN3CC[C@H](N(C)C)C3)c(C(F)(F)F)c2)cc1Nc1nccc(-c2cncnc2)n1 [bafetinib]
In short: as §1

[20] = compound: Cc1cccc(CC(=O)N2CCc3c2ccc(-c2cn(C)c4ncnc(N)c24)c3F)n1
In short: as §1

Target	log2 fold change [1]	log2 fold change [2]	log2 fold change [3]	log2 fold change [4]	log2 fold change [5]	log2 fold change [6]	log2 fold change [7]	log2 fold change [8]	log2 fold change [9]	log2 fold change [10]	log2 fold change [11]	log2 fold change [12]	log2 fold change [13]	log2 fold change [14]	log2 fold change [15]	log2 fold change [16]	log2 fold change [17]	log2 fold change [18]	log2 fold change [19]	log2 fold change [20]
TDP2 isoform 2 (UniProt O95551)	inactive: 0.001	inactive: 0.063	inactive: 0.01	inactive: -0.024	inactive: -0.045	inactive: 0.058	inactive: -0.014	inactive: 0.03	inactive: 0.026	inactive: 0.006	inactive: -0.048	inactive: 0.027	inactive: 0.024	inactive: 0.01	inactive: 0.013	inactive: -0.013	inactive: 0.006	inactive: 0.046	inactive: -0.02	inactive: 0.006
TFR2 (UniProt Q9UP52)	inactive: -0.008	inactive: -0.001	inactive: -0.007	inactive: -0.053	inactive: 0.026	inactive: 0.02	inactive: -0.006	inactive: 0.012	inactive: 0	inactive: -0.008	inactive: -0.031	inactive: 0.042	inactive: 0.026	inactive: -0.017	inactive: -0.008	inactive: 0.058	inactive: -0.007	inactive: -0.02	inactive: 0.017	inactive: 0.075
TECR (UniProt Q9NZ01)	inactive: 0.05	inactive: -0.015	inactive: -0.046	inactive: 0.052	inactive: -0.008	inactive: 0.068	inactive: -0.104	inactive: 0.053	inactive: 0.048	inactive: -0.008	inactive: -0.082	inactive: -0.032	inactive: -0.138	inactive: 0.011	inactive: -0.056	active: -0.448	inactive: 0.056	inactive: -0.045	inactive: -0.049	inactive: 0.015
TBC1D9B isoform 2 (UniProt Q66K14)	inactive: -0.086	inactive: 0	inactive: -0.039	inactive: 0.039	inactive: 0.046	inactive: 0.03	inactive: -0.037	inactive: 0.03	inactive: 0.098	inactive: 0.027	inactive: -0.045	inactive: 0.01	inactive: -0.082	inactive: -0.081	inactive: -0.028	inactive: 0.043	inactive: -0.024	inactive: 0.044	inactive: -0.038	inactive: 0.145
TARDBP (UniProt Q13148)	inactive: -0.006	active: -0.318	inactive: -0.044	inactive: 0	inactive: -0.139	inactive: 0.181	inactive: 0.137	inactive: 0.012	inactive: -0.004	inactive: 0.06	inactive: 0.002	inactive: 0.145	inactive: 0.018	inactive: 0.005	inactive: -0.045	inactive: 0.115	inactive: 0.022	inactive: 0.282	inactive: -0.055	inactive: 0.044
TAOK3 (UniProt Q9H2K8)	inactive: 0.116	inactive: 0.006	inactive: 0.099	inactive: -0.016	inactive: -0.001	inactive: -0.05	inactive: -0.002	inactive: -0.026	inactive: 0.015	inactive: 0.01	inactive: -0.058	inactive: -0.017	inactive: 0.066	inactive: 0.153	inactive: 0.016	inactive: -0.15	inactive: -0.016	inactive: -0.005	inactive: -0.074	inactive: -0.126
TBC1D4 (UniProt O60343)	inactive: -0.056	inactive: -0.01	inactive: 0.007	inactive: 0.013	inactive: 0.014	inactive: -0.01	inactive: 0.003	inactive: -0.003	inactive: -0.012	inactive: 0.016	inactive: 0.003	inactive: -0.064	inactive: 0.016	inactive: -0.028	inactive: 0.005	inactive: 0.003	inactive: 0.051	inactive: 0.002	inactive: -0.007	inactive: 0.025
TATDN3 isoform 3 (UniProt Q17R31)	inactive: -0.037	inactive: 0.043	inactive: -0.018	inactive: -0.06	inactive: 0.024	inactive: -0.035	inactive: 0.003	inactive: 0.013	inactive: -0.008	inactive: 0.038	inactive: -0.044	inactive: -0.039	inactive: -0.034	inactive: -0.131	inactive: 0.079	inactive: 0.077	inactive: -0.006	inactive: 0.032	inactive: -0.063	inactive: 0.097
TBCE (UniProt Q15813)	inactive: -0.008	inactive: -0.162	inactive: -0.026	inactive: 0.031	inactive: -0.028	inactive: -0.008	active: 0.265	inactive: -0.008	inactive: -0.006	inactive: -0.006	inactive: -0.019	inactive: -0.039	inactive: -0.042	inactive: -0.002	inactive: 0.025	inactive: -0.034	inactive: -0.004	inactive: 0.001	inactive: 0.033	inactive: 0.039
TEX10 (UniProt Q9NXF1)	inactive: -0.023	inactive: -0.06	inactive: -0.025	inactive: -0.031	inactive: 0.031	inactive: 0.045	inactive: -0.044	inactive: 0.063	inactive: -0.072	inactive: -0.024	inactive: 0.031	inactive: -0.018	inactive: 0.024	inactive: -0.053	inactive: 0.022	inactive: -0.025	inactive: -0.024	inactive: -0.046	inactive: 0.142	inactive: 0.095
TATDN2 (UniProt Q93075)	inactive: -0.096	inactive: 0.013	inactive: 0.155	inactive: -0.021	inactive: 0.054	inactive: 0.059	inactive: -0.053	inactive: -0.031	inactive: -0.097	inactive: 0.011	inactive: -0.13	inactive: 0.128	inactive: -0.009	inactive: -0.047	inactive: 0.047	inactive: 0.018	inactive: 0.024	inactive: -0.014	inactive: -0.028	inactive: 0.012
TAL1 (UniProt P17542)	inactive: -0.013	inactive: -0.006	inactive: -0.02	inactive: -0.023	inactive: -0.023	inactive: 0.051	inactive: -0.079	inactive: 0.08	inactive: 0.035	inactive: 0.031	inactive: -0.084	inactive: 0.004	inactive: 0.022	inactive: -0.032	inactive: -0.019	inactive: 0.133	inactive: 0.028	inactive: 0.028	inactive: -0.048	inactive: 0.051
TARS2 (UniProt Q9BW92)	inactive: -0.005	inactive: -0.099	inactive: -0.008	inactive: -0.014	inactive: -0.051	inactive: 0.016	inactive: 0.136	inactive: -0.037	inactive: 0.01	inactive: 0.156	inactive: 0.04	inactive: 0.003	inactive: -0.023	inactive: -0.057	inactive: -0.018	inactive: -0.045	inactive: 0.025	inactive: 0.05	inactive: 0.034	inactive: 0.035
TBL2 (UniProt Q9Y4P3)	inactive: 0.018	inactive: -0.007	inactive: 0.023	inactive: 0.039	inactive: -0.003	inactive: 0.057	inactive: -0.036	inactive: 0.008	inactive: 0.055	inactive: -0.018	inactive: -0.025	inactive: -0.002	inactive: -0.007	inactive: -0.068	inactive: 0.014	inactive: -0.053	inactive: 0.063	inactive: 0.032	inactive: -0.013	inactive: 0.055
TDRD7 (UniProt Q8NHU6)	inactive: -0.078	inactive: -0.058	inactive: 0.014	inactive: -0.052	inactive: -0.024	inactive: -0.005	inactive: 0.015	inactive: 0.011	inactive: 0.008	inactive: 0.083	inactive: 0.014	inactive: -0.039	inactive: -0.022	inactive: -0.115	inactive: -0.032	inactive: 0.015	inactive: 0.07	inactive: -0.023	inactive: -0.017	inactive: 0.059
TFDP1 (UniProt Q14186)	inactive: -0.02	inactive: -0.042	inactive: -0.028	inactive: 0.076	inactive: 0.125	inactive: 0.069	inactive: -0.133	inactive: 0.043	inactive: 0.018	inactive: -0.039	inactive: -0.005	inactive: -0.025	inactive: -0.042	inactive: 0.003	inactive: -0.03	inactive: 0.028	inactive: 0.004	inactive: 0.011	inactive: -0.034	inactive: -0.003
